This test concerns the target PbARPC1-GFP (P. berghei). Put plainly: affinity purification with mass spectrometry.

Results are given in words; binding and its absence hold for the method and conditions named. Binding seen in cells or lysates may run through a third protein. A yes stands for co-enrichment or nearness to the bait. Other partners may have been found.

In the case of Alp5a (from UniProt A0A509AIH3), the binding entry was “binds”. Turning to Alp5b (from UniProt A0A509AML7), the binding result is listed as “binds”.

Regarding “PBANKA_1229300 (from UniProt A0A509AQK9)”, the binding result is reported as “binds”. Consider “PbARPC2 (PBANKA_1014200) (from UniProt A0A509AMR4)”, for which the binding result is listed as “binds”.

B1: apicomplexan-specific kinetochore protein 7 (protein, UniProt A0A509AF39 1-832)
chain: MDNKDEITSIGNKNKDEEIFKLRKLVSIFKNECKKLKEENDNLKKNERSESLEKKNESNVENSDGNVSEYGTDIQEKNEIIKRSIIEKSYKKLKDFTILLEDRLKNVKLESEKKCVELENKIEECNKNKKIYITEIGNLKEKLREQNSVIDGLNKKIEEYKIYLRSEKNVQACYENNIDQTIEYKIEIRKLKENIETLKKNNEITSKERQQYRSMIILCSQYKEKCKQIPNFQNKIDLLENQIKEMEIYKYKDNENIKKLTELKNTIINNQIENNNLKTQLNEWVNFAKIYINSKSINIDTLKKTMNELNNKYNEANSTKTDLEFKYRKIVVDIEVQKQLLEDKNFELKILKNKNMRLEKKYEFLKKDYLLEFTKNSTHISTTSILQNKNDEKGNEDNYKIEDIESVLPTNISSVLNEKYNEHDSEEIKKNKIENLLKLAQNYKYKIDFFQNDNLEKEKLIEELNNKIDKYKTDFENTQLKEKNIQVFTQDLLLYEKEINFLKEHAEIYKKQILNLENELANINNLWKEDNEKNEISIKNLKEALKKAQFEAKILANSSSSISGKNIIETKDTKNDSTFLYKDIDNMNSIDEIQIKNLKNENLYLKAKIEVIKIYYANQIKSFREAFLYILGWDIQIEQNDEEIFFIFTSMFSTHDGKFIFIKDKMQNDKRSYNKEKDEYEKFKRIKLEHDPTSDTSKIDPTSEKTKDEISYSTEQTSQCAVEKNLDTDEQFFAGLFGNKNQINAERIIDKINLKNTNINMSTIMKGCKYNLLLQGYYSIKWNENAEWKKYINKMTTYPILLSLLCIEEYNSIKSQYHNSLCKNSRSILFKI
Regarding B1, the binding result is on record as “binds”.
